Results are given in words; binding and its absence hold for the method and conditions named. In cells and extracts the contact can be indirect. Some entries that bind do so weakly or less than the wild type.
Experiments:
[1] = molecular target: T1, mixed lineage kinase domain‐like (MLKL) protein (human (endogenous in HeLa or HCE cells)) (UniProt Q8NB16); assay: co-IP; endogenous proteins; Optn +/+ cells with or without 1 MOI HSV-1 for 24 h; immunoprecipitation by MLKL antibody, IgG as control; IP buffer 250 mM NaCl, 50 mM Tris, .5 mM EDTA, .5% NP-40; protein A/G beads, 4°C overnight; blot for OPTN
T1 sequence: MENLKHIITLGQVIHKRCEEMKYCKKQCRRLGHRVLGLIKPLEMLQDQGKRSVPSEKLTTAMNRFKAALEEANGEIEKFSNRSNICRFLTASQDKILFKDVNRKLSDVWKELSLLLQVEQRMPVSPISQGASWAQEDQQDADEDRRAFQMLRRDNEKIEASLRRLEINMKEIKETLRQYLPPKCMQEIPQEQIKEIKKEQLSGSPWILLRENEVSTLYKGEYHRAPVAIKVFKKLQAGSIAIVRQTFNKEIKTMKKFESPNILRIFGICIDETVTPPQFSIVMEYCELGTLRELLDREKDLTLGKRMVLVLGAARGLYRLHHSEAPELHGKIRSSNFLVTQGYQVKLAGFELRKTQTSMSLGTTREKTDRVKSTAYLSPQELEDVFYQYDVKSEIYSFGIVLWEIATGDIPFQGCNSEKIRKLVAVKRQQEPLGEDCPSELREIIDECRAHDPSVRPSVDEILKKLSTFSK

Chains of the proteins cited; added tags and fusions are not shown.
UniProt Q96CV9: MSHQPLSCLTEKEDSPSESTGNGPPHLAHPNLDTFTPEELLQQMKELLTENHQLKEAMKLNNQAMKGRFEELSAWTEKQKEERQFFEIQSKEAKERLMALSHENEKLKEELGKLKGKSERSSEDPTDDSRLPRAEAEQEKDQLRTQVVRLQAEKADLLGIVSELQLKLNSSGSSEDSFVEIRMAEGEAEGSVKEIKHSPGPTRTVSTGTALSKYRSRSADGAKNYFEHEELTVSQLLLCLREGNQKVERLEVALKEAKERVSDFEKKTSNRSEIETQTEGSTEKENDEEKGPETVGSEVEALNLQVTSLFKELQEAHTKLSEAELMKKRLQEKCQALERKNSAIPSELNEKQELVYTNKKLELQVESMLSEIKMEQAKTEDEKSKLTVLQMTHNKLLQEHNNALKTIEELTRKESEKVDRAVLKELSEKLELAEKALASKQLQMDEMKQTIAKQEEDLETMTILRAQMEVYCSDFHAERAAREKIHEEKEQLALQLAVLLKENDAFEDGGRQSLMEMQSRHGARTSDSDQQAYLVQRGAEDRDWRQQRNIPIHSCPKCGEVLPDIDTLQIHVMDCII

[2] = molecular target: T1, mixed lineage kinase domain‐like (MLKL) protein (human (endogenous in HeLa or HCE cells)); assay: co-IP; Optn -/- cells transfected with empty vector, full-length OPTN or OPTN 1-424 and infected with 1 MOI HSV-1 for 24 h; immunoprecipitation after transfection, blots for OPTN and MLKL; precipitating antibody not stated

Substance | binding [1] | binding [2]
Optineurin (OPTN), endogenous (from UniProt Q96CV9 1-577) | binds | 
full‐length OPTN (expressed from a plasmid) (from UniProt Q96CV9 1-577) |  | binds
